Experiment [1] deals with bovine serum albumin (bovine) (UniProt P02769). Description: pull-down; negative control of the immunoprecipitation: BSA coupled to CNBr-activated Sepharose; WGA-enriched, digitonin-solubilised rabbit skeletal muscle microsomes; 0.1% digitonin, 50 mM Tris-HCl pH 7.4, 150 mM NaCl; Western blot; only the target purified. On the technique in general: A western blot detects proteins with antibodies after separation by electrophoresis.

Chains of the proteins cited; added tags and fusions are not shown. Residues count along the entry.
UniProt P02769, residues 25-607: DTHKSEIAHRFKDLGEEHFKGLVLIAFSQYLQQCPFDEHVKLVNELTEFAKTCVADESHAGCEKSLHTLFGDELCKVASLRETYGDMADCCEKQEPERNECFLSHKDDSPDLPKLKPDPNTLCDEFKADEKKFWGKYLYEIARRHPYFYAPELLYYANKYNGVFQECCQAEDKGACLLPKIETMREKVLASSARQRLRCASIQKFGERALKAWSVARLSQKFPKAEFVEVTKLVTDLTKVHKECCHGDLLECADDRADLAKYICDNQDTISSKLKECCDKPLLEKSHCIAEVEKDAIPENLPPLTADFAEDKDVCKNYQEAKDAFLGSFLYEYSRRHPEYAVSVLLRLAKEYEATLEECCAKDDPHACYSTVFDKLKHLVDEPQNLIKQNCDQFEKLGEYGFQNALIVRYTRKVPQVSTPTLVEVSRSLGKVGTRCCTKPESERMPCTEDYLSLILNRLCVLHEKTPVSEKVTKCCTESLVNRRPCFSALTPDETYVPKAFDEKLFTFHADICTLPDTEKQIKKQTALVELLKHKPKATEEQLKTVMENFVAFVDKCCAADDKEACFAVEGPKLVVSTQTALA

For experiment [2], the target named is T1, alpha-dystroglycan (rabbit skeletal muscle) (rabbit (endogenous in skeletal muscle)) (UniProt Q28685).
T1 sequence: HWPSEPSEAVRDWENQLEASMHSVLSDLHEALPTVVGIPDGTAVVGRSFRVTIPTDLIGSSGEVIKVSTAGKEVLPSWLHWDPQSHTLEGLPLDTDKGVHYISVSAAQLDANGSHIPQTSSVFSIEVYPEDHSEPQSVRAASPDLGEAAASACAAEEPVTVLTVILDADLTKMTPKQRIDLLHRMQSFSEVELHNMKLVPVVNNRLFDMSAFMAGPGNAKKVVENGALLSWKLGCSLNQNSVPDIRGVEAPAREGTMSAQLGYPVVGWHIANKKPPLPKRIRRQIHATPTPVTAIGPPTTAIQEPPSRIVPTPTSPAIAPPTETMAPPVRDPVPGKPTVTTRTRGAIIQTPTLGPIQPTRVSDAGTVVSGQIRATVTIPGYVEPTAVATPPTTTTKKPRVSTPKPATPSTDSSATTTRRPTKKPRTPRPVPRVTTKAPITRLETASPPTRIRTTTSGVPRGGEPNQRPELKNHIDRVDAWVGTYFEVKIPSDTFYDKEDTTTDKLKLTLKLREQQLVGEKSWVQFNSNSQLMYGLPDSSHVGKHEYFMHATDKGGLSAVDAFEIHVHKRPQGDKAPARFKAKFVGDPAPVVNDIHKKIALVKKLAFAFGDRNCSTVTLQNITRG
Kind of experiment: co-IP; anti-α-DG antibody IIH6 coupled to CNBr-activated Sepharose; WGA-enriched, digitonin-solubilised rabbit skeletal muscle microsomes; 0.1% digitonin, 50 mM Tris-HCl pH 7.4, 150 mM NaCl; eluted in 0.1 M triethylamine pH 11.5; Western blot.

No constants are given. Whether binding was seen depends on the method and setting. In cells and extracts the contact can be indirect. Some binding calls cover weakened binding; strength is not graded here.

B1: beta-sarcoglycan (rabbit skeletal muscle) (protein, UniProt Q28635 1-318)
chain: MAAAAAAAAEQQSSNGPVKKSMREKAVERRNVNKEHNSNFKAGYIPIDEDRLHKTGLRGRKGNLAICVIVLLFLLAVINLIITLVIWAVIRIGPNGCDSMEFHESGLLRFKQVSDMGVIHPLYKSTVGGRRNENLVITGNNQPIVFQQGTTKLSVEKNKTSITSDIGMQFFDPRTQNILFSTDYETHEFHLPSGVKSLNVQKASTERITSNATSDLNIKVDGRAIVRGNEGVFIMGKTIEFHMGGNMELKAENSIILNGTVMVSTTRLPSSSSADQLGGGDWVRYKLCMCADGTLFKVQVTGQNVGCQVSDNPCGNTH
In the case of B1, in experiment [1], the binding result is listed as “no binding”.

B2: alpha-dystroglycan (rabbit skeletal muscle) (protein, UniProt Q28685 30-653)
chain: HWPSEPSEAVRDWENQLEASMHSVLSDLHEALPTVVGIPDGTAVVGRSFRVTIPTDLIGSSGEVIKVSTAGKEVLPSWLHWDPQSHTLEGLPLDTDKGVHYISVSAAQLDANGSHIPQTSSVFSIEVYPEDHSEPQSVRAASPDLGEAAASACAAEEPVTVLTVILDADLTKMTPKQRIDLLHRMQSFSEVELHNMKLVPVVNNRLFDMSAFMAGPGNAKKVVENGALLSWKLGCSLNQNSVPDIRGVEAPAREGTMSAQLGYPVVGWHIANKKPPLPKRIRRQIHATPTPVTAIGPPTTAIQEPPSRIVPTPTSPAIAPPTETMAPPVRDPVPGKPTVTTRTRGAIIQTPTLGPIQPTRVSDAGTVVSGQIRATVTIPGYVEPTAVATPPTTTTKKPRVSTPKPATPSTDSSATTTRRPTKKPRTPRPVPRVTTKAPITRLETASPPTRIRTTTSGVPRGGEPNQRPELKNHIDRVDAWVGTYFEVKIPSDTFYDKEDTTTDKLKLTLKLREQQLVGEKSWVQFNSNSQLMYGLPDSSHVGKHEYFMHATDKGGLSAVDAFEIHVHKRPQGDKAPARFKAKFVGDPAPVVNDIHKKIALVKKLAFAFGDRNCSTVTLQNITRG
In the case of B2, the binding result in experiment [1] is on record as “no binding”.

B3: delta-sarcoglycan (rabbit skeletal muscle) (protein, UniProt G1SGL0 1-324)
chain: MYRQQPAISLHQLIFPFPFSQQFNGSASLLPCLFQMPQEQYTHHRSTMPSAEGPQVYKVGIYGWRKRCLYFFVLLLMILILVNLAMTIWILKVMNFTIDGMGNLRITEKGLKLEGDSEFLQPLYAKEIQSRPGNALYFKSARNVTVNILNDQTKVLTQLITGPKAVEAYGKKFEVKTVSGKLLFSADDNEVVVGAERLRVLGAEGTVFPKSIETPNVRADPFKELRLESPTRALVMEAPKGVEINAEAGNMEATCRTELRLESKDGEIKLDAAKIKLPRLPHGSYTPTGTRQKVFEICVCANGRLFLSQAGTGSTCQINTSVCL
On to B3, for which the binding result in experiment [1] is “no binding”.

B4: alpha-sarcoglycan (rabbit skeletal muscle) (protein, UniProt Q28686 25-387)
chain: QQTTLYPLVGRVFVHTLEPASFLHLPEHAAPATIPVTYHAHLQGHPDLPRWLRYTQRSPHHPGFLYGAATPEDRGRQVIEVTAYNRDSFDTAGQSLVLLIRDPEGSPLPYQTEFLVRSHDVEEVLPPTPASHFLTALAGLWEPGELKLLNITSALDRGGRVPLPIGGQKEGVYIKVGSASPFSTCLKMVASPDSHARCARGQPPLLSCYDTLAPHFRVDWCNVSLVDTSVPEPVDEVPTPGDGILEHDPFFCPPTEATARDFLADALVTLLVPLLVALLLALLLAYIMCCRREGRLKRDLATSDIQMVHHCTIHENTEELRQMAASREVPRPLFPLPMFNVRTGERMPPRVDSAQVPLILDQH
Take B4: the binding result is listed as “binds” in experiment [2] and “no binding” in experiment [1].

B5: beta-dystroglycan (rabbit skeletal muscle) (protein, UniProt Q28685 654-895)
chain: SIVVEWTNNTLPLEPCPKEQITGLSRRIAEDNGQPRPAFTNALEPDFKATSIAITGSGSCRHLQFIPVAPPGIPSSVTPPTEVPDRDPEKSSEDDVYLHTVIPAVVVAAILLIAGIIAMICYRKKRKGKLTLEDQATFIKKGVPIIFADELDDSKPPPSSSMPLILQEEKAPLPPPEYPSQSVPETTPLNQDTVGEYTPLRDEDPNAPPYQPPPPFTAPMEGKGSRPKNMTPYRSPPPYVPP
B5: in experiment [1], the binding entry was “no binding”.

(Values after article PMC5083101.)
